Data: the odorant receptor screen of Mainland et al. (2015)
Several values for one entry are separate records, joined by “and”; a condition that tells them apart may be missing. Equal values may be shown once. The list shows a part of the results. Each value is one well over the wells without odorant, computed here; the data are noisy.

How the values were obtained:
Assay in all cases: odorant receptor activation (CRE luciferase / Renilla) (fold of no-odor wells); higher = more activation
Conditions in all cases: 100 µM
[1] = test system: OR8B3 H20R/Q24R/V34I/M114I clone 1727
OR8B4 E22G clone 1227 = test system: OR8B4 E22G clone 1227
[2] = test system: OR8B4 Y131H/C140F/C178R clone 1440
OR8B8 clone 1226 = test system: OR8B8 clone 1226
OR8B8 clone 1504 = test system: OR8B8 clone 1504
OR8D1 clone 1142 = test system: OR8D1 clone 1142
OR8D2 clone 1179 = test system: OR8D2 clone 1179
[3] = test system: OR8D4 C120Y/R133K/F200L/L283P/R298K clone 1072
OR8G1 clone 1395 = test system: OR8G1 clone 1395
OR8G5 clone 1323 = test system: OR8G5 clone 1323

Structure (SMILES) | odorant receptor activation [1] | odorant receptor activation (OR8B4 E22G clone 1227) | odorant receptor activation [2] | odorant receptor activation (OR8B8 clone 1226) | odorant receptor activation (OR8B8 clone 1504) | odorant receptor activation (OR8D1 clone 1142) | odorant receptor activation (OR8D2 clone 1179) | odorant receptor activation [3] | odorant receptor activation (OR8G1 clone 1395) | odorant receptor activation (OR8G5 clone 1323)
CCC(C)=O [2-butanone] | 0.242 | 0.774 | 1.19 | 1.12 | 1.01 | 1.01 | 0.824 | 2.56 | 0.844 | 1.04
CCOc1cc(C=O)ccc1O [ethyl vanillin] | 0.394 | 0.98 and 1.23 | 1.17 and 1.47 | 1.26 and 1.05 | 1.25 and 1.52 and 0.975 | 2 and 1.27 | 1.28 and 1 | 1.24 and 1.07 | 1.1 and 1.24 | 0.762 and 1.08
CS [methanethiol] | 0.827 | 1.17 | 1.03 | 1.12 | 0.895 | 0.781 | 0.834 | 0.963 | 1.13 | 0.826
CCCCOC(C)=O [butyl acetate] | 0.487 | 0.962 | 0.123 | 0.855 | 0.958 | 1.03 | 0.976 | 1.18 | 0.227 | 0.731
